PubChem BioAssay AID743121 | NCATS | 2013
The deposit covers about 26,000 reagents; this is a part drawn at random. 167 of all reagents (0.63%) were called active. 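Calls are per gene from RSA p-values that are not deposited; an individual active-marked siRNA can sensitise only weakly.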 The numbers tell different reagents against one gene apart. Further read-outs or replicates are left out here.

Assay: 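Knock-downs that sensitise breast cancer cells to camptothecin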 (primary screen)
Cell system: MDA-MB-231 cells, a human breast cancer line
Knock-down reagent: single siRNA against human genes, 20 nM siRNA (0.8 pmol per well)
Duration: 120 h (drug added 48 h after transfection, read 72 h later)
Treatment: camptothecin 20 nM (about EC30) for 72 h; vehicle 0.1% DMSO in parallel plates
Detection: 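CellTiter-Glo ATP signal, scaled to control siRNA as percent viability; sensitisation given as log2 of untreated divided by camptothecin-treated viability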
Scale: log2 vehicle/camptothecin viability: higher = stronger sensitisation to camptothecin; viability with camptothecin: higher = more viable cells
Rule for the call: 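Active genes have an RSA gene-level p-value below 0.001, computed from the ratios of their separate siRNAs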

log2 vehicle/camptothecin viability | viability with camptothecin (% of control) | outcome | gene | reagent no.
-0.178 | 48.5 | inactive | GDF11 (growth differentiation factor 11) | 1
0.00663 | 85.1 | inactive | GDF11 (growth differentiation factor 11) | 2
0.0284 | 94.8 | inactive | GDF11 (growth differentiation factor 11) | 3
-0.171 | 56.5 | inactive | KCNK13 (potassium two pore domain channel subfamily K member 13) | 1
-0.378 | 86.9 | inactive | KCNK13 (potassium two pore domain channel subfamily K member 13) | 2
-0.568 | 72.8 | inactive | KCNK13 (potassium two pore domain channel subfamily K member 13) | 3
0.142 | 31.8 | inactive | KCNK13 (potassium two pore domain channel subfamily K member 13) | 4
-0.069 | 82.2 | inactive | FGGY (FGGY carbohydrate kinase domain containing) | 1
-0.163 | 101 | inactive | FGGY (FGGY carbohydrate kinase domain containing) | 2
0.0875 | 79.9 | inactive | FGGY (FGGY carbohydrate kinase domain containing) | 3
-0.168 | 68.1 | inactive | FGGY (FGGY carbohydrate kinase domain containing) | 4
0.0434 | 80.1 | inactive | ARHGEF10 (Rho guanine nucleotide exchange factor 10) | 1
-0.0296 | 108 | inactive | ARHGEF10 (Rho guanine nucleotide exchange factor 10) | 2
-0.0584 | 89.3 | inactive | ARHGEF10 (Rho guanine nucleotide exchange factor 10) | 3
-0.0273 | 111 | inactive | ARHGEF10 (Rho guanine nucleotide exchange factor 10) | 4
-0.524 | 59 | inactive | TPX2 (TPX2 microtubule nucleation factor) | 1
-0.202 | 85.6 | inactive | TPX2 (TPX2 microtubule nucleation factor) | 2
-0.694 | 33.7 | inactive | TPX2 (TPX2 microtubule nucleation factor) | 3
0.33 | 32.1 | inactive | TPX2 (TPX2 microtubule nucleation factor) | 4
0.664 | 45.1 | inactive | TIAM2 (TIAM Rac1 associated GEF 2) | 1
-0.306 | 77.9 | inactive | TIAM2 (TIAM Rac1 associated GEF 2) | 2
-0.124 | 98.4 | inactive | TIAM2 (TIAM Rac1 associated GEF 2) | 3
-0.216 | 115 | inactive | TIAM2 (TIAM Rac1 associated GEF 2) | 4
-0.162 | 55.9 | inactive | HMCN1 (hemicentin 1) | 1
0.0139 | 84.2 | inactive | HMCN1 (hemicentin 1) | 2
-0.362 | 91.8 | inactive | HMCN1 (hemicentin 1) | 3
0.243 | 43.5 | inactive | PLA2G12A (phospholipase A2 group XIIA) | 1
-0.18 | 78.6 | inactive | PLA2G12A (phospholipase A2 group XIIA) | 2
-0.096 | 92.6 | inactive | PLA2G12A (phospholipase A2 group XIIA) | 3
0.0597 | 78.9 | inactive | PSMB9 (proteasome 20S subunit beta 9) | 1
-0.0106 | 70.7 | inactive | PSMB9 (proteasome 20S subunit beta 9) | 2
-0.182 | 94.7 | inactive | PSMB9 (proteasome 20S subunit beta 9) | 3
0.0214 | 79.3 | inactive | PSMB9 (proteasome 20S subunit beta 9) | 4
-0.192 | 96.7 | inactive | TAF3 (TATA-box binding protein associated factor 3) | 1
-0.501 | 14.8 | inactive | TAF3 (TATA-box binding protein associated factor 3) | 2
0.141 | 6.78 | inactive | TAF3 (TATA-box binding protein associated factor 3) | 3
-0.372 | 54.5 | inactive | NLGN1 (neuroligin 1) | 1
-0.273 | 127 | inactive | NLGN1 (neuroligin 1) | 2
-0.586 | 92 | inactive | NLGN1 (neuroligin 1) | 3
0.0287 | 91.6 | inactive | ALKBH2 (alkB homolog 2, alpha-ketoglutarate dependent dioxygenase) | 1
-0.279 | 93.1 | inactive | ALKBH2 (alkB homolog 2, alpha-ketoglutarate dependent dioxygenase) | 2
-0.34 | 109 | inactive | ALKBH2 (alkB homolog 2, alpha-ketoglutarate dependent dioxygenase) | 3
0.437 | 27.1 | inactive | TXNDC12 (thioredoxin domain containing 12) | 1
-0.366 | 52.1 | inactive | TXNDC12 (thioredoxin domain containing 12) | 2
-0.32 | 60 | inactive | TXNDC12 (thioredoxin domain containing 12) | 3
-0.28 | 77.8 | inactive | AQP2 (aquaporin 2) | 1
-0.519 | 98.9 | inactive | AQP2 (aquaporin 2) | 2
-0.0516 | 69.4 | inactive | AQP2 (aquaporin 2) | 3

6 neighbouring records already listed, quoted:
log2 vehicle/camptothecin viability | viability with camptothecin (% of control) | outcome | gene | reagent no.
-0.096 | 92.6 | inactive | PLA2G12A (phospholipase A2 group XIIA) | 3
0.0597 | 78.9 | inactive | PSMB9 (proteasome 20S subunit beta 9) | 1
-0.0106 | 70.7 | inactive | PSMB9 (proteasome 20S subunit beta 9) | 2
-0.182 | 94.7 | inactive | PSMB9 (proteasome 20S subunit beta 9) | 3
0.0214 | 79.3 | inactive | PSMB9 (proteasome 20S subunit beta 9) | 4
-0.192 | 96.7 | inactive | TAF3 (TATA-box binding protein associated factor 3) | 1
